Measured values published in patent publication US11813267B2, “DNA-PK inhibitors” (Vertex Pharmaceuticals Incorporated, priority 2013, dated 2023).
Some entries share one result that the patent states for a list of compounds.

Amino acid sequences for entries named in this document (tags omitted).
UniProt P78527, whole entry: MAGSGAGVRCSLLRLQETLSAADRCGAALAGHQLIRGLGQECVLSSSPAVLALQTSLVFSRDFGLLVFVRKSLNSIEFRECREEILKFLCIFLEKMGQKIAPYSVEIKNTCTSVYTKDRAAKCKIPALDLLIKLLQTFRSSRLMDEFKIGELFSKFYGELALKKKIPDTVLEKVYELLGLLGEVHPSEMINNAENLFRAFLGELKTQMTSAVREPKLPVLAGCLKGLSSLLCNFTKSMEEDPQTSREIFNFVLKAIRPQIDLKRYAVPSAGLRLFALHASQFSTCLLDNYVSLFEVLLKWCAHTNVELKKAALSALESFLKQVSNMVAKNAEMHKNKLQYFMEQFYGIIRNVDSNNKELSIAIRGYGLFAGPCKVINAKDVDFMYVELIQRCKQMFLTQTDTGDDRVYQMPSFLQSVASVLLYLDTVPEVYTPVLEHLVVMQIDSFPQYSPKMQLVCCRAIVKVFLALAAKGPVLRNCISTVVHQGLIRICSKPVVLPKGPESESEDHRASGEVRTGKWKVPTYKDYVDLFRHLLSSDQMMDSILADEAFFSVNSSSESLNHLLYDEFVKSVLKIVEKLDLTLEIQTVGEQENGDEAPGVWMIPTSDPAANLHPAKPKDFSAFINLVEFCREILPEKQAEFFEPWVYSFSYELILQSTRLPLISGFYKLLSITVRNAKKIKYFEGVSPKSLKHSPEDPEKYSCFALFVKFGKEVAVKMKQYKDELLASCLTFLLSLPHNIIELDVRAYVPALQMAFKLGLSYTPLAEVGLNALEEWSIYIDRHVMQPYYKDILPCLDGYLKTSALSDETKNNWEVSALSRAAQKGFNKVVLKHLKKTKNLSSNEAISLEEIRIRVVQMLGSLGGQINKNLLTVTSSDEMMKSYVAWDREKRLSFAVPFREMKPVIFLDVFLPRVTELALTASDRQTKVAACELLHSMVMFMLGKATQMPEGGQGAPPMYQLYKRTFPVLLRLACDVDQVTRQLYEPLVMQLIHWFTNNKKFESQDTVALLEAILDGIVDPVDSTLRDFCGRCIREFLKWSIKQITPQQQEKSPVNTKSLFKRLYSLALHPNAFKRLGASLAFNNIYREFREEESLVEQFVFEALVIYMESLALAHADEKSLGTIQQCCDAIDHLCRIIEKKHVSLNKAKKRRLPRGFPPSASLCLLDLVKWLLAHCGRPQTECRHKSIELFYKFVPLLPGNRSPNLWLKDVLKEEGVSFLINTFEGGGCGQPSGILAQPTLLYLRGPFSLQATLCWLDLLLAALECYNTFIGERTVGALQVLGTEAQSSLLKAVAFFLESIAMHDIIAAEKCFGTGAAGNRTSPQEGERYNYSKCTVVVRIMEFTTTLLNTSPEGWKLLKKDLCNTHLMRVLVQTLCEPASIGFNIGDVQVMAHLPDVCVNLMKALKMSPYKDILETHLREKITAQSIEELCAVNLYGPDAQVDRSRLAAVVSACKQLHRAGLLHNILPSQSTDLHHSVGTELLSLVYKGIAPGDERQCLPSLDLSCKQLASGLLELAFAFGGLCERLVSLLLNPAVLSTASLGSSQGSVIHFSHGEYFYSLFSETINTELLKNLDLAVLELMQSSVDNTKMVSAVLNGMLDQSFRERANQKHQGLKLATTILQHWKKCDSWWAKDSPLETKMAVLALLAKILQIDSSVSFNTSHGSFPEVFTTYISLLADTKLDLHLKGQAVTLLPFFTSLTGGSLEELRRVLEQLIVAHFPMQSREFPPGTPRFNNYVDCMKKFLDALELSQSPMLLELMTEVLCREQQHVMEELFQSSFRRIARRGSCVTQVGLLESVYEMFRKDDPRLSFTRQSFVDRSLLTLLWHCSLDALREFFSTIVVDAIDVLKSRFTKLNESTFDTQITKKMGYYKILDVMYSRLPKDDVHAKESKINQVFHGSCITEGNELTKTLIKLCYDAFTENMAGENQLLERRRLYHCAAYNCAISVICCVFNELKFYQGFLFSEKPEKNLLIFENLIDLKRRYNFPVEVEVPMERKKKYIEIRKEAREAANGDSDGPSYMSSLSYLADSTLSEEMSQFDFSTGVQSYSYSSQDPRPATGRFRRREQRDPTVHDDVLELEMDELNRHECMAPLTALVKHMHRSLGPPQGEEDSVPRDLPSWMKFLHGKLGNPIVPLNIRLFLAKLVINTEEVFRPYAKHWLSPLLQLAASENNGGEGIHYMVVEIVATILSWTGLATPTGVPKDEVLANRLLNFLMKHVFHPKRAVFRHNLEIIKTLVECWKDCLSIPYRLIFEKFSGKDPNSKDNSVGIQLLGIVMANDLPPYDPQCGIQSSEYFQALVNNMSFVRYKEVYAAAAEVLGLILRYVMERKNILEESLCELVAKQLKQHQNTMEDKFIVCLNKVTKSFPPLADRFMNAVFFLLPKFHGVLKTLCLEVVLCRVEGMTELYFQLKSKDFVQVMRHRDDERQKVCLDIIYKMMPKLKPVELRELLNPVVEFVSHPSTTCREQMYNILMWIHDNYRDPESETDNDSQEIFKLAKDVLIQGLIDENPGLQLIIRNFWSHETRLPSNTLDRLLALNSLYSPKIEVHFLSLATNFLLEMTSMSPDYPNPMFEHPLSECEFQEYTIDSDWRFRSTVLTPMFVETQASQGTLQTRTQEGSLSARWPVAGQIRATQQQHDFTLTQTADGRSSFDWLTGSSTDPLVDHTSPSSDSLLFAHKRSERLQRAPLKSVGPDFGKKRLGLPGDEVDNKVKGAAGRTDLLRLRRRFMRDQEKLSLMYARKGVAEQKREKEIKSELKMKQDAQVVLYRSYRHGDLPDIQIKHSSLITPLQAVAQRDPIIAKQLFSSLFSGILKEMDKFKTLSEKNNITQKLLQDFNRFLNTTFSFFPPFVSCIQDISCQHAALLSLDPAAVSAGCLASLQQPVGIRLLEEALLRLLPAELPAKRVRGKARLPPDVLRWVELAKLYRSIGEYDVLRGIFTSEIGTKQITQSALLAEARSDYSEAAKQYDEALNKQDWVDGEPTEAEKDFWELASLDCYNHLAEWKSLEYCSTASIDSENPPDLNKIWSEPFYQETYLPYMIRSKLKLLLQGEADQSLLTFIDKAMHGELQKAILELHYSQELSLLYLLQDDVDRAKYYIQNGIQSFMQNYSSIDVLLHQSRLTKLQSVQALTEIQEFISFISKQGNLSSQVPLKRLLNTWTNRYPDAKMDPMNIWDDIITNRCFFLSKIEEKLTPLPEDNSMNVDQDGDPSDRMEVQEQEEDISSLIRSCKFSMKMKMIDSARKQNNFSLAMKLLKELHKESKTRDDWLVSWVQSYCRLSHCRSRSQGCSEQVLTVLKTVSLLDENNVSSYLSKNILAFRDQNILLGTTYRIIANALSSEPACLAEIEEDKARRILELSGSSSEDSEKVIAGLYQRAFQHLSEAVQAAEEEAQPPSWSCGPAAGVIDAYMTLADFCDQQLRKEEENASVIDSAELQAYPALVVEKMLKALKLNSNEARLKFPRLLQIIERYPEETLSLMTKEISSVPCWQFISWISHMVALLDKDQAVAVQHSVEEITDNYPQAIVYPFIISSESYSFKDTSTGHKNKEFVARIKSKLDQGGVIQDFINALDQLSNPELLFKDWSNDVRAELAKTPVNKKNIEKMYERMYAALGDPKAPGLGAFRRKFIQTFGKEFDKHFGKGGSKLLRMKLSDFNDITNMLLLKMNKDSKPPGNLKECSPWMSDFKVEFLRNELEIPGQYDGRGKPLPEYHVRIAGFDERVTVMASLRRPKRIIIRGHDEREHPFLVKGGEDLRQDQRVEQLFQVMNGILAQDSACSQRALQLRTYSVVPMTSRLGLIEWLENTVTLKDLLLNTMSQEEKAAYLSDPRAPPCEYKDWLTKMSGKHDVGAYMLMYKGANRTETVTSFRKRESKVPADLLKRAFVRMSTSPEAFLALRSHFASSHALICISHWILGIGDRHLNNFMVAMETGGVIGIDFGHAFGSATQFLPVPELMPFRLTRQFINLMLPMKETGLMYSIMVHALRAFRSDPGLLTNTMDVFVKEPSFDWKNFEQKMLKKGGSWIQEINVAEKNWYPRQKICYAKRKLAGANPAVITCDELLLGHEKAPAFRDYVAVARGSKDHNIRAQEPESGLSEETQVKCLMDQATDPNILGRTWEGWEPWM

Biological target: DNA-PK (Homo sapiens, UniProt P78527)
Assay: DNA-PK inhibition assay (standard radiometric 33P-ATP kinase assay)
Type: biochemical
Conditions: approx. 6 nM DNA-PK, 100 μM ATP, 45 min, competitive tight-binding fit

Row | Structure (SMILES) | Ki [µM] | Ki for the inhibition of DNA-PK
1 | Oc1cnc(N[C@H]2CC[C@@H](Oc3cc(N4CCOCC4)cc4nccnc34)CC2)nc1 [Compound 158] | < 1 | less than 0.10 micromolar
2 | OCc1ccc(N[C@H]2CC[C@@H](Oc3cc(N4CCOCC4)cc4nccnc34)CC2)nc1 [Compound 160] | < 1 | less than 0.10 micromolar
3 | COCc1cnc(N[C@H]2CC[C@@H](Oc3cc(N4CCOCC4)cc4nccnc34)CC2)nc1 [Compound 161] | < 1 | less than 0.10 micromolar
4 | CC(C)NC(=O)c1cnc(N[C@H]2CC[C@@H](Oc3cc(N4CCOCC4)cc4nccnc34)CC2)nc1 [Compound 162] | < 1 | less than 0.10 micromolar
5 | Brc1ccc(N[C@H]2CC[C@@H](Oc3cc(N4CCOCC4)cc4nccnc34)CC2)nc1 [Compound 164] | < 1 | less than 0.10 micromolar
6 | OC1CCN(c2ccnc(N[C@H]3CC[C@@H](Oc4cc(N5CCOCC5)cc5nccnc45)CC3)n2)C1 (stereo partly drawn) [Compound 187] | < 1 | less than 0.10 micromolar
7 | FC(F)(F)c1ccc(N[C@H]2CC[C@@H](Oc3cc(N4CCOCC4)cc4nccnc34)CC2)nc1 [Compound 189] | < 1 | less than 0.10 micromolar
8 | Cc1cnc2c(O[C@H]3CC[C@@H](Nc4ncccn4)CC3)cc(N3CCOCC3)cc2n1 [Compound 190] | < 1 | less than 0.10 micromolar
9 | Cc1cnc2cc(N3CCOCC3)cc(O[C@H]3CC[C@@H](Nc4ncccn4)CC3)c2n1 [Compound 191] | < 1 | less than 0.10 micromolar
10 | COc1cc(N[C@H]2CC[C@@H](Oc3cc(N4CCOCC4)cc4nccnc34)CC2)ncn1 [Compound 194] | < 1 | less than 0.10 micromolar
11 | N#Cc1cccc(N[C@H]2CC[C@@H](Oc3cc(N4CCOCC4)cc4nccnc34)CC2)n1 [Compound 195] | < 1 | less than 0.10 micromolar
12 | Nc1ccc(N[C@H]2CC[C@@H](Oc3cc(N4CCOCC4)cc4nccnc34)CC2)nc1 [Compound 197] | < 1 | less than 0.10 micromolar
13 | CN1CCN(c2ccc(C(=O)N[C@H]3CC[C@@H](Oc4cc(N5CCOCC5)cc5nccnc45)CC3)nc2)CC1 [Compound 198] | < 1 | less than 0.10 micromolar
14 | CN1CCN(c2ncc(C(=O)N[C@H]3CC[C@@H](Oc4cc(N5CCOCC5)cc5nccnc45)CC3)cn2)CC1 [Compound 199] | < 1 | less than 0.10 micromolar
15 | CN1CCN(c2ccc(C(=O)N[C@H]3CC[C@@H](Oc4cc(N5CCOCC5)cc5nccnc45)CC3)cc2F)CC1 [Compound 200] | < 1 | less than 0.10 micromolar
16 | CN1CCN(c2ccc(C(=O)N[C@H]3CC[C@@H](Oc4cc(N5CCOCC5)cc5nccnc45)CC3)c(F)c2)CC1 [Compound 201] | < 1 | –
17 | COC(=O)c1cccnc1N[C@H]1CC[C@@H](Oc2cc(N3CCOCC3)cc3nccnc23)CC1 [Compound 202] | < 1 | less than 0.10 micromolar
18 | N#Cc1nccc(N[C@H]2CC[C@@H](Oc3cc(N4CCOCC4)cc4nccnc34)CC2)n1 [Compound 203] | < 1 | less than 0.10 micromolar
19 | CNc1cc(N[C@H]2CC[C@@H](Oc3cc(N4CCOCC4)cc4nccnc34)CC2)ncn1 [Compound 205] | < 1 | less than 0.10 micromolar

Row | Structure (SMILES) | Ki [µM] | Ki for the inhibition of DNA-PK
20 | COc1ccc(N[C@H]2CC[C@@H](Oc3cc(N4CCOCC4)cc4nccnc34)CC2)nc1 [Compound 206] | < 1 | less than 0.10 micromolar
21 | N#Cc1ccnc(N[C@H]2CC[C@@H](Oc3cc(N4CCOCC4)cc4nccnc34)CC2)n1 [Compound 207] | < 1 | less than 0.10 micromolar
22 | CCc1cnc(N[C@H]2CC[C@@H](Oc3cc(N4CCOCC4)cc4nccnc34)CC2)nc1 [Compound 208] | < 1 | less than 0.10 micromolar
23 | CC(C)c1cnc(N[C@H]2CC[C@@H](Oc3cc(N4CCOCC4)cc4nccnc34)CC2)nc1 [Compound 209] | < 1 | less than 0.10 micromolar
24 | O=C(O)c1ccnc(N[C@H]2CC[C@@H](Oc3cc(N4CCOCC4)cc4nccnc34)CC2)c1 [Compound 210] | < 1 | less than 0.10 micromolar
25 | CCOc1cc(N[C@H]2CC[C@@H](Oc3cc(N4CCOCC4)cc4nccnc34)CC2)ncn1 [Compound 215] | < 1 | less than 0.10 micromolar
26 | COc1nc(Cl)cc(N[C@H]2CC[C@@H](Oc3cc(N4CCOCC4)cc4nccnc34)CC2)n1 [Compound 219] | < 1 | less than 0.10 micromolar
27 | COCc1cc(N[C@H]2CC[C@@H](Oc3cc(N4CCOCC4)cc4nccnc34)CC2)ncn1 [Compound 225] | < 1 | less than 0.10 micromolar
28 | CCOc1cnc(N[C@H]2CC[C@@H](Oc3cc(N4CCOCC4)cc4nccnc34)CC2)nc1 [Compound 233] | < 1 | less than 0.10 micromolar
29 | N#Cc1cc(N[C@H]2CC[C@@H](Oc3cc(N4CCOCC4)cc4nccnc34)CC2)ncn1 [Compound 234] | < 1 | less than 0.10 micromolar
30 | O[C@H](c1cnc(N[C@H]2CC[C@@H](Oc3cc(N4CCOCC4)cc4nccnc34)CC2)nc1)C(F)(F)F [Compound 235] | < 1 | less than 0.10 micromolar
31 | O[C@@H](c1cnc(N[C@H]2CC[C@@H](Oc3cc(N4CCOCC4)cc4nccnc34)CC2)nc1)C(F)(F)F [Compound 236] | < 1 | less than 0.10 micromolar
32 | Cc1nc(N[C@H]2CC[C@@H](Oc3cc(N4CCOCC4)cc4nccnc34)CC2)ccc1C#N [Compound 241] | < 1 | less than 0.10 micromolar
33 | Cc1cc(C#N)cnc1N[C@H]1CC[C@@H](Oc2cc(N3CCOCC3)cc3nccnc23)CC1 [Compound 242] | < 1 | less than 0.10 micromolar
34 | CC(C)(O)c1cnc(N[C@H]2CC[C@@H](Oc3cc(N4CCOCC4)cc4nccnc34)CC2)nc1 [Compound 243] | < 1 | less than 0.10 micromolar
35 | COc1cc(N[C@H]2CC[C@@H](Oc3cc(N4CCOCC4)cc4nccnc34)CC2)nc(OC)n1 [Compound 245] | < 1 | less than 0.10 micromolar
36 | Cc1ccnc(N[C@H]2CC[C@@H](Oc3cc(N4CCOCC4)cc4nccnc34)CC2)n1 [Compound 246] | < 1 | less than 0.10 micromolar
37 | CC(C)Oc1cnc(N[C@H]2CC[C@@H](Oc3cc(N4CCOCC4)cc4nccnc34)CC2)nc1 [Compound 247] | < 1 | less than 0.10 micromolar
38 | Cn1nccc1-c1ccc(N[C@H]2CC[C@@H](Oc3cc(N4CCOCC4)cc4nccnc34)CC2)nc1 [Compound 250] | < 0.1 | –

Row | Structure (SMILES) | Ki [µM] | Ki for the inhibition of DNA-PK
39 | c1cnc2c(O[C@H]3CC[C@@H](Nc4ncc(C5CCOCC5)cn4)CC3)cc(N3CCOCC3)cc2n1 [Compound 251] | < 0.1 | –
40 | CSc1ncc(F)c(N[C@H]2CC[C@@H](Oc3cc(N4CCOCC4)cc4nccnc34)CC2)n1 [Compound 252] | < 0.1 | –
41 | CSc1cc(N[C@H]2CC[C@@H](Oc3cc(N4CCOCC4)cc4nccnc34)CC2)ncn1 [Compound 253] | < 0.1 | –
42 | c1ccc(N[C@H]2CC[C@@H](Oc3cc(N4CCOCC4)cc4nccnc34)CC2)nc1 [Compound 254] | – | less than 0.10 micromolar
43 | Cc1ccc(N[C@H]2CC[C@@H](Oc3cc(N4CCOCC4)cc4nccnc34)CC2)nc1 [Compound 256] | – | less than 0.10 micromolar
44 | COc1cnc(N[C@H]2CC[C@@H](Oc3cc(N4CCOCC4)cc4nccnc34)CC2)cn1 [Compound 257] | < 0.1 | –
45 | Cc1cc(-c2nnco2)cnc1N[C@H]1CC[C@@H](Oc2cc(N3CCOCC3)cc3nccnc23)CC1 [Compound 258] | < 0.1 | –
46 | Cc1nc(N[C@H]2CC[C@@H](Oc3cc(N4CCOCC4)cc4nccnc34)CC2)ccc1-c1nnco1 [Compound 259] | < 0.1 | –
47 | COc1ccc(N[C@H]2CC[C@@H](Oc3cc(N4CCOCC4)cc4nccnc34)CC2)nn1 [Compound 260] | – | less than 0.10 micromolar
48 | c1cnc2c(O[C@H]3CC[C@@H](Nc4ncc(C5CCOC5)cn4)CC3)cc(N3CCOCC3)cc2n1 (stereo partly drawn) [Compound 261] | < 0.1 | –
49 | Cc1cnc(NC2CC2)nc1N[C@H]1CC[C@@H](Oc2cc(N3CCOCC3)cc3nccnc23)CC1 [Compound 262] | < 0.1 | –
50 | COCCNc1cc(N[C@H]2CC[C@@H](Oc3cc(N4CCOCC4)cc4nccnc34)CC2)ncn1 [Compound 263] | – | less than 0.10 micromolar
51 | CC(C)(CO)Nc1ccnc(N[C@H]2CC[C@@H](Oc3cc(N4CCOCC4)cc4nccnc34)CC2)n1 [Compound 264] | – | less than 0.10 micromolar
52 | Cc1cc(N[C@H]2CC[C@@H](Oc3cc(N4CCOCC4)cc4nccnc34)CC2)ncn1 [Compound 265] | – | less than 0.10 micromolar
53 | O=c1[nH]c(N[C@H]2CC[C@@H](Oc3cc(N4CCOCC4)cc4nccnc34)CC2)ncc1F [Compound 266] | < 0.1 | –
54 | c1cc(N[C@H]2CC[C@@H](Oc3cc(N4CCOCC4)cc4nccnc34)CC2)nc(C2CC2)n1 [Compound 267] | – | less than 0.10 micromolar
55 | COc1nccc(N[C@H]2CC[C@@H](Oc3cc(N4CCOCC4)cc4nccnc34)CC2)n1 [Compound 268] | – | less than 0.10 micromolar
56 | CN(C)c1nc(N[C@H]2CC[C@@H](Oc3cc(N4CCOCC4)cc4nccnc34)CC2)ncc1F [Compound 269] | – | less than 0.10 micromolar
57 | CC(C)(C)OC(=O)N1CCC(c2cnc(N[C@H]3CC[C@@H](Oc4cc(N5CCOCC5)cc5nccnc45)CC3)nc2)CC1 [Compound 270] | < 0.1 | –
